From patent US20200277385A1
These are yes or no findings as the source states them, for the method shown. Some entries that bind do so weakly or less than the wild type.

Sequences of proteins named here, by UniProt entry; tags and fusion partners are left off. A change or cut given only in a name is not applied to a line headed by its entry.
UniProt Q8WTT0: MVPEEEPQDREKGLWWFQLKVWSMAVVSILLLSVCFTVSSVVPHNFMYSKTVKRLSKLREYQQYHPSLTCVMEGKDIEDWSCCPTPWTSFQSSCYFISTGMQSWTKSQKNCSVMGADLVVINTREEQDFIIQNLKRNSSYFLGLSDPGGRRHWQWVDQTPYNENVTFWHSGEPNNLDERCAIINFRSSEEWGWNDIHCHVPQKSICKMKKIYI

How the values were obtained:
CD303 ectodomain (human) [1] = target: CD303 ectodomain (human) (UniProt Q8WTT0); assay: ELISA on coated CD303 ectodomain, HEK-293 supernatants
CD303 ectodomain (human) [2] = target: CD303 ectodomain (human) (UniProt Q8WTT0); assay: ELISA on coated CD303 ectodomain, 122A2 and derivatives, 1.75 to 10 ng/mL
CD303 ectodomain (human) [3] = target: CD303 ectodomain (human) (UniProt Q8WTT0); assay: ELISA on coated CD303 ectodomain
CD303 ectodomain (human) [4] = target: CD303 ectodomain (human) (UniProt Q8WTT0); assay: ELISA on coated CD303 ectodomain (basis of the selection for cytometry)
CD303 ectodomain (human) [5] = target: CD303 ectodomain (human) (UniProt Q8WTT0); assay: ELISA on coated CD303 ectodomain, 102E9 derivatives

Row | Binder | binding (CD303 ectodomain (human) [1]) | binding (CD303 ectodomain (human) [2]) | binding (CD303 ectodomain (human) [3]) | binding (CD303 ectodomain (human) [4]) | binding (CD303 ectodomain (human) [5])
1 | humanized antibody 122A2H10 (antibody, human IgG1, kappa, V domains shown) VH: QVQLQQSGAEVVKPGASVKISCKGSGYTFTDYSMHWVRQAHAKSLEWIGVISTYYGDSNYNQKFKGKVTMTVDTSSSTAYMELSRLRSDDTAVYYCARNGNFYVMDYWGQGTLVTVSS VL: DIQMTQSPSSLSASVGDRVTITCQASQDISNYLNWYQQKPDGTVKLLIYYTSRLHTGVPSRFSGSGSGTDYSLTISNLDQEDIATYYCQQGNTLPWTFGGGTKLEIKR | binds | binds | binds |  | 
2 | humanized antibody 122A2H7 (antibody, human IgG1, kappa, V domains shown) VH: QVQLQQSGAEVVKPGASVKISCKGSGYTFTDYSMHWVRQAPGQGLEWIGVISTYYGDSNYNQKFKGKVTMTVDKSSSTAYMELSRLTSDDTAVYYCARNGNFYVMDYWGQGTLVTVSS VL: DIQMTQSTSSLSASLGDRVTITCQASQDISNYLNWYQQKPDGTVKLLIYYTSRLHTGVPSRFSGSGSGTDYSLTISNLDQEDIATYYCQQGNTLPWTFGGGTKLEIKR | binds | binds | binds |  | 
3 | humanized antibody 102E9H13 (antibody, human IgG1, kappa, V domains shown) VH: QIHLVQSGPELKKPGESVKISCKASGYTFTDYSMHWVKQAPGQGLKWMGWINTETGEPTYADDFKGRFVFSLDTSVSTAYLQINSLKNEDTSTYYCTRNGYYVGYYAMDYWGQGTSVTVSS VL: QIQLTQSPSFLSASPGDRVTITCSASSSVIYIHWFQQKPGKAPKLWIYSTSYLASGVPSRFSGSGSGTEYTLTISSMQAEDFATYYCQQRRSYPFTFGGGTKLEIKR | binds |  |  |  | binds
4 | humanized antibody 102E9H9 (antibody, human IgG1, kappa, V domains shown) VH: QIHLVQSGPELKKPGESVKISCKASGYTFTDYSMHWVKQAPGQGLKWMGWINTETGEPTYADDFKGRFVFSLDTSVSTAYLQINSLKNEDTSTYYCTRNGYYVGYYAMDYWGQGTSVTVSS VL: QIQLTQSPSFLSASPGERVTITCSASSSVIYIHWFQQKPGTAPKLWIYSTSYLASGVPSRFSGSGSGTSYTLTISRMEAEDFATYYCQQRRSYPFTFGGGTKLEIKR | binds |  |  |  | binds
5 | humanized antibody 102E9H5 (antibody, human IgG1, kappa, V domains shown) VH: QIHLVQSGPELKKPGESVKISCKASGYTFTDYSMHWVKQAPGQGLKWMGWINTETGEPTYADDFKGRFVFSLDTSVSTAYLQINSLKNEDTSTYYCTRNGYYVGYYAMDYWGQGTSVTVSS VL: QIQLTQSPSFLSASPGERVTITCSASSSVIYIHWFQQKPGKAPKLWIYSTSYLASGVPSRFSGSGSGTEYTLTISSMEAEDFATYYCQQRRSYPFTFGGGTKLEIKR | binds |  |  |  | binds
6 | humanized antibody 102E9H10 (antibody, human IgG1, kappa, V domains shown) VH: QIHLVQSGPELKKPGESVKISCKASGYTFTDYSMHWVRQAPGQGLKWMGWINTETGEPTYAQDFKGRFVFSLDTSVSTAYLQINSLKNEDTSTYYCTRNGYYVGYYAMDYWGQGTSVTVSS VL: QIQLTQSPSFLSASPGERVTITCSASSSVIYIHWFQQKPGTAPKLWIYSTSYLASGVPSRFSGSGSGTSYTLTISRMEAEDFATYYCQQRRSYPFTFGGGTKLEIKR | binds |  |  |  | binds

Results, then the binder that gave them:

Row | binding (CD303 ectodomain (human) [1]) | binding (CD303 ectodomain (human) [2]) | binding (CD303 ectodomain (human) [3]) | binding (CD303 ectodomain (human) [4]) | binding (CD303 ectodomain (human) [5]) | Binder
7 | binds | binds |  |  |  | hybrid antibody 122A2H1 (antibody, human IgG1, kappa, V domains shown) VH: QVQLQQSGAEVVKPGASVKISCKGSGYTFTDYSMHWVKQAHAKSLEWIGVISTYYGDSNYNQKFKGKVTMTVDKSSSTAYMELSRLTSDDTAVYYCARNGNFYVMDYWGQGTLVTVSS VL: DIQMTQTTSSLSASLGDRVTISCRASQDISNYLNWYQQKPDGTVKLLIYYTSRLHSGVPSRFSGSGSGTDYSLTISNLDQEDIATYFCQQGNTLPWTFGGGTKLEIKR
8 | binds | binds |  | binds |  | hybrid antibody 122A2H3 (antibody, human IgG1, kappa, V domains shown) VH: QVQLQQSGAEVVKPGASVKISCKGSGYTFTDYSMHWVRQAPGQGLEWIGVISTYYGDSNYNQKFKGKVTMTVDKSSSTAYMELSRLTSDDTAVYYCARNGNFYVMDYWGQGTLVTVSS VL: DIQMTQTTSSLSASLGDRVTISCRASQDISNYLNWYQQKPDGTVKLLIYYTSRLHSGVPSRFSGSGSGTDYSLTISNLDQEDIATYFCQQGNTLPWTFGGGTKLEIKR
9 | binds | binds | binds |  |  | humanized antibody 122A2H15 (antibody, human IgG1, kappa, V domains shown) VH: QVQLQQSGAEVVKPGASVKISCKGSGYTFTDYSMHWVRQAPGQGLEWIGVISTYYGDSNYNQKFKGKVTMTVDKSSSTAYMELSRLTSDDTAVYYCARNGNFYVMDYWGQGTLVTVSS VL: DIQMTQSTSSLSASLGDRVTITCQASQDISNYLNWYQQKPDGTVKLLIYYTSNLHTGVPSRFSGSGSGTDYSLTISNLQQEDIATYYCQQGNTLPWTFGGGTKLEIKR
10 | binds | binds |  |  |  | hybrid antibody 122A2H2 (antibody, human IgG1, kappa, V domains shown) VH: QVQLQQSGAEVVKPGASVKISCKGSGYTFTDYSMHWVRQAHAKSLEWIGVISTYYGDSNYNQKFKGKVTMTVDTSSSTAYMELSRLRSDDTAVYYCARNGNFYVMDYWGQGTLVTVSS VL: DIQMTQTTSSLSASLGDRVTISCRASQDISNYLNWYQQKPDGTVKLLIYYTSRLHSGVPSRFSGSGSGTDYSLTISNLDQEDIATYFCQQGNTLPWTFGGGTKLEIKR
11 | binds | binds | binds |  |  | humanized antibody 122A2H14 (antibody, human IgG1, kappa, V domains shown) VH: QVQLQQSGAEVVKPGASVKISCKGSGYTFTDYSMHWVRQAHAKSLEWIGVISTYYGDSNYNQKFKGKVTMTVDTSSSTAYMELSRLRSDDTAVYYCARNGNFYVMDYWGQGTLVTVSS VL: DIQMTQSTSSLSASLGDRVTITCQASQDISNYLNWYQQKPDGTVKLLIYYTSNLHTGVPSRFSGSGSGTDYSLTISNLQQEDIATYYCQQGNTLPWTFGGGTKLEIKR
12 | binds |  |  |  |  | hybrid antibody 102E9H12 (antibody, human IgG1, kappa, V domains shown) VH: QIHLVQSGPDLKKPGETVKISCKASGYTFTDYSMHWVKQAPGKGLKWMGWINTETGEPTYADDFKGRFAFSLESSASTAFLQINNLKNEDTSTYFCTRNGYYVGYYAMDYWGQGTSVTVSS VL: QIQLTQSPSFLSASPGDRVTITCSASSSVIYIHWFQQKPGKAPKLWIYSTSYLASGVPSRFSGSGSGTEYTLTISSMQAEDFATYYCQQRRSYPFTFGGGTKLEIKR
13 | binds |  |  |  |  | hybrid antibody 102E9H4 (antibody, human IgG1, kappa, V domains shown) VH: QIHLVQSGPDLKKPGETVKISCKASGYTFTDYSMHWVKQAPGKGLKWMGWINTETGEPTYADDFKGRFAFSLESSASTAFLQINNLKNEDTSTYFCTRNGYYVGYYAMDYWGQGTSVTVSS VL: QIQLTQSPSFLSASPGERVTITCSASSSVIYIHWFQQKPGKAPKLWIYSTSYLASGVPSRFSGSGSGTEYTLTISSMEAEDFATYYCQQRRSYPFTFGGGTKLEIKR
14 | binds |  |  |  |  | hybrid antibody 102E9H1 (antibody, human IgG1, kappa, V domains shown) VH: QIHLVQSGPELKKPGESVKISCKASGYTFTDYSMHWVKQAPGQGLKWMGWINTETGEPTYADDFKGRFVFSLDTSVSTAYLQINSLKNEDTSTYYCTRNGYYVGYYAMDYWGQGTSVTVSS VL: QIVLTQSPAIMSASPGEKVTITCSASSSVIYIHWFQQKPGTSPKLWIYSTSYLASGVPARFSGSGSGTSYSLTISRMEAEDAATYYCQQRRSYPFTFGGGTKLEIKR
15 | binds |  |  |  |  | hybrid antibody 102E9H8 (antibody, human IgG1, kappa, V domains shown) VH: QIHLVQSGPDLKKPGETVKISCKASGYTFTDYSMHWVKQAPGKGLKWMGWINTETGEPTYADDFKGRFAFSLESSASTAFLQINNLKNEDTSTYFCTRNGYYVGYYAMDYWGQGTSVTVSS VL: QIQLTQSPSFLSASPGERVTITCSASSSVIYIHWFQQKPGTAPKLWIYSTSYLASGVPSRFSGSGSGTSYTLTISRMEAEDFATYYCQQRRSYPFTFGGGTKLEIKR
